Reference: the supplement of paper PMC8728848
Some of the results follow.

Key:
Experiment in all cases: glycan array binding signal (z-score within array); higher = stronger binding
Conditions in all cases: glycan notation: IUPAC condensed, linker removed
Gal(b1-4)Glc = target: Gal(b1-4)Glc
Outline: (§1)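 Arrays were curated from the Consortium for Functional Glycomics database, 3228 in total, and kept only where the protein sequence was available. Binding is expressed as a within-array Z-score. This score was averaged across arrays of the same protein sequence at different concentrations or buffers and across linkers, and negative values can be read as non-binding.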

Gal(b1-4)Glc6S = target: Gal(b1-4)Glc6S
Outline: as §1

Gal(b1-4)GlcNAc = target: Gal(b1-4)GlcNAc
Outline: as §1

[1] = target: Gal(b1-4)GlcNAc(a1-6)Gal(b1-4)GlcNAc
Outline: as §1

Gal(b1-4)GlcNAc(b1-2)Man = target: Gal(b1-4)GlcNAc(b1-2)Man
Outline: as §1

[2] = target: Gal(b1-4)GlcNAc(b1-2)Man(a1-3)Man(b1-4)GlcNAc(b1-4)GlcNAc
Outline: as §1

[3] = target: Gal(b1-4)GlcNAc(b1-2)Man(a1-3)[Gal(b1-4)GlcNAc(b1-2)Man(a1-6)]Man(b1-4)GlcNAc(b1-4)GlcNAc
Outline: as §1

[4] = target: Gal(b1-4)GlcNAc(b1-2)Man(a1-3)[Gal(b1-4)GlcNAc(b1-2)Man(a1-6)]Man(b1-4)GlcNAc(b1-4)[Fuc(a1-6)]GlcNAc
Outline: as §1

[5] = target: Gal(b1-4)GlcNAc(b1-2)Man(a1-3)[Gal(b1-4)GlcNAc(b1-2)Man(a1-6)][Gal(b1-4)GlcNAc(b1-4)]Man(b1-4)GlcNAc(b1-4)[Fuc(a1-6)]GlcNAc
Outline: as §1

[6] = target: Gal(b1-4)GlcNAc(b1-2)Man(a1-3)[Gal(b1-4)GlcNAc(b1-2)Man(a1-6)][GlcNAc(b1-4)]Man(b1-4)GlcNAc(b1-4)[Fuc(a1-6)]GlcNAc
Outline: as §1

[7] = target: Gal(b1-4)GlcNAc(b1-2)Man(a1-3)[GlcNAc(b1-2)Man(a1-6)]Man(b1-4)GlcNAc(b1-4)GlcNAc
Outline: as §1

[8] = target: Gal(b1-4)GlcNAc(b1-2)Man(a1-3)[GlcNAc(b1-4)][Gal(b1-4)GlcNAc(b1-2)Man(a1-6)]Man(b1-4)GlcNAc(b1-4)GlcNAc
Outline: as §1

[9] = target: Gal(b1-4)GlcNAc(b1-2)Man(a1-3)[Man(a1-6)]Man(b1-4)GlcNAc(b1-4)GlcNAc
Outline: as §1

[10] = target: Gal(b1-4)GlcNAc(b1-2)Man(a1-6)Man(b1-4)GlcNAc(b1-4)GlcNAc
Outline: as §1

[11] = target: Gal(b1-4)GlcNAc(b1-2)Man(a1-6)[GlcNAc(b1-2)Man(a1-3)]Man(b1-4)GlcNAc(b1-4)GlcNAc
Outline: as §1

[12] = target: Gal(b1-4)GlcNAc(b1-2)Man(a1-6)[Man(a1-3)]Man(b1-4)GlcNAc(b1-4)GlcNAc
Outline: as §1

[13] = target: Gal(b1-4)GlcNAc(b1-2)[Gal(b1-4)GlcNAc(b1-4)]Man(a1-3)[Gal(b1-4)GlcNAc(b1-2)Man(a1-6)]Man(b1-4)GlcNAc(b1-4)GlcNAc
Outline: as §1

[14] = target: Gal(b1-4)GlcNAc(b1-2)[Gal(b1-4)GlcNAc(b1-4)]Man(a1-3)[Gal(b1-4)GlcNAc(b1-2)[Gal(b1-4)GlcNAc(b1-6)]Man(a1-6)]Man(b1-4)GlcNAc(b1-4)GlcNAc
Outline: as §1

[15] = target: Gal(b1-4)GlcNAc(b1-2)[Gal(b1-4)GlcNAc(b1-4)]Man(a1-3)[GlcNAc(b1-4)][Gal(b1-4)GlcNAc(b1-2)Man(a1-6)]Man(b1-4)GlcNAc(b1-4)GlcNAc
Outline: as §1

[16] = target: Gal(b1-4)GlcNAc(b1-2)[Gal(b1-4)GlcNAc(b1-4)]Man(a1-3)[GlcNAc(b1-4)][Gal(b1-4)GlcNAc(b1-2)[Gal(b1-4)GlcNAc(b1-6)]Man(a1-6)]Man(b1-4)GlcNAc(b1-4)GlcNAc
Outline: as §1

[17] = target: Gal(b1-4)GlcNAc(b1-2)[Gal(b1-4)GlcNAc(b1-6)]Man(a1-6)[Gal(b1-4)GlcNAc(b1-2)Man(a1-3)]Man(b1-4)GlcNAc(b1-4)GlcNAc
Outline: as §1

[18] = target: Gal(b1-4)GlcNAc(b1-2)[Gal(b1-4)GlcNAc(b1-6)]Man(a1-6)[Gal(b1-4)GlcNAc(b1-2)Man(a1-3)]Man(b1-4)GlcNAc(b1-4)[Fuc(a1-6)]GlcNAc
Outline: as §1

B1: pilr alpha (protein)
chain: MLYGVTQPKHLSASMGGSVEIPFSFYYPWELATAPDVRISWRRGHFHRQSFYSTRPPSIHKDYVNRLFLNWTEGQKSGFLRISNLQKQDQSVYFCRVELDTRSSGRQQWQSIEGTKLSIT
Q: What does the source list for B1?
A: glycan array binding signal (z-score) (Gal(b1-4)Glc): -0.468; glycan array binding signal (z-score) (Gal(b1-4)Glc6S): 1.06; glycan array binding signal (z-score) (Gal(b1-4)GlcNAc): -0.271; glycan array binding signal (z-score) [1]: -0.083; glycan array binding signal (z-score) (Gal(b1-4)GlcNAc(b1-2)Man): -0.025; glycan array binding signal (z-score) [2]: 0.149; glycan array binding signal (z-score) [3]: -0.557; glycan array binding signal (z-score) [4]: 0.154; glycan array binding signal (z-score) [5]: -0.507; glycan array binding signal (z-score) [6]: -0.682; glycan array binding signal (z-score) [7]: -0.298; glycan array binding signal (z-score) [8]: 0.116; glycan array binding signal (z-score) [9]: -0.118; glycan array binding signal (z-score) [10]: -0.364; glycan array binding signal (z-score) [11]: -0.551; glycan array binding signal (z-score) [12]: 0.006; glycan array binding signal (z-score) [13]: -0.136; glycan array binding signal (z-score) [14]: -0.368; glycan array binding signal (z-score) [15]: -0.596; glycan array binding signal (z-score) [16]: -0.302; glycan array binding signal (z-score) [17]: -0.405; glycan array binding signal (z-score) [18]: 0.01
